# From patent US20140296212A1, “SUBSTITUTED PHENOXYPROPYLCYCLOAMINE DERIVATIVES AS HISTAMINE-3 (H3) RECEPTOR LIGANDS” (CEPHALON, INC., priority 2009, published 2014)
# Chains of the proteins cited; added tags and fusions are not shown. Lines headed by an entry give the natural chain unless they say otherwise; changes in a name come on top.
# UniProt Q9Y5N1: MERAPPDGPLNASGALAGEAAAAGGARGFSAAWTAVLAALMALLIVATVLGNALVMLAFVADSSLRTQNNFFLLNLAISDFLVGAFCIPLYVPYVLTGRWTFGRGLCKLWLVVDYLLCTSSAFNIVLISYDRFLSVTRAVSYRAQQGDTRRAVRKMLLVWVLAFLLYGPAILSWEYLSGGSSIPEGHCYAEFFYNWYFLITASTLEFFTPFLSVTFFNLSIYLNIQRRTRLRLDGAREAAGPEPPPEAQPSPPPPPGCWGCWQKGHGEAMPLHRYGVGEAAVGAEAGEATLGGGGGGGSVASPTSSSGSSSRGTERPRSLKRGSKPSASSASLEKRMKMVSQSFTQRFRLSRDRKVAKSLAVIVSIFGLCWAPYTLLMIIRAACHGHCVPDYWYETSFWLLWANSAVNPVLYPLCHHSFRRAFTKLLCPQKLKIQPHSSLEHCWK
# UniProt Q9QYN8: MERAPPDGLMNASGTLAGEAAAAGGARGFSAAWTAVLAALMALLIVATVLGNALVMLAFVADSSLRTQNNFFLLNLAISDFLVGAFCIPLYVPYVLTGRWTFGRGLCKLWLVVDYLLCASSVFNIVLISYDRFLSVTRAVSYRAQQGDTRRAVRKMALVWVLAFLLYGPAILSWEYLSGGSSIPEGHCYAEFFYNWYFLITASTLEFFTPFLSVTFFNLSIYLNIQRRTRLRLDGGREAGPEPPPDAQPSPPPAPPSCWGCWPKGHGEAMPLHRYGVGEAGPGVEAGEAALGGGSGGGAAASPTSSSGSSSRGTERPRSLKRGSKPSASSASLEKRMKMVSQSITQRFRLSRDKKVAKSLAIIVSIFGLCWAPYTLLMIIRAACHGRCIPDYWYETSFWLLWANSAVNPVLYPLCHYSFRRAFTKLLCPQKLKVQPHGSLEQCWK
# For at least one compound, name, drawing or mass did not settle the structure.
# Tests used:
# human H3 receptor = biological target: T1, human H3 receptor (Homo sapiens, UniProt Q9Y5N1); experiment: Human H3 radioligand binding ([3H]-N-alpha-methylhistamine, SPA); conditions: membranes of CHO cells expressing human H3
# T1 construct: expressed in transfected cells
# Method: Cell pellets were resuspended in 5 mM Tris-HCl, pH 7.5 with 5 nM EDTA and a cocktail of protease inhibitors (Complete Protease Inhibitor Tablets, Roche Diagnostics). Cells were disrupted using a polytron cell homogenizer and the suspension was centrifuged at 1000×g for 10 minutes at 4° C. The pellet was discarded and the supernatant centrifuged at 40,000×g for 30 min at 4° C. This membrane pellet was washed in membrane buffer containing 50 mM Tris-HCl, pH 7.5 with 0.6 mM EDTA, 5 mM MgCl2 and protease inhibitors, recentrifuged as above and the final pellet resuspended in membrane buffer plus 250 mM sucrose and frozen at −80° C.
# Membranes were resuspended in 50 mM Tris HCl (pH 7.4), 5 mM MgCl2, 0.1% BSA. The membrane suspensions (10 μg protein per well) were incubated in a 96 well microtiter plate with [^3H]-N-alpha-methylhistamine (approximately 1 nM final concentration), test compounds at various concentrations (0.01 nM-30 μM) and scintillation proximity beads (Perkin Elmer, FlashBlueGPCR Scintillating Beads) in a final volume of 80 μl for 4 hours at room temperature, protected from light. Non-specific binding was determined in the presence of 10 μM clobenpropit. Radioligand bound to receptor, and therefore in proximity to the scintillation beads, was measured using a MicroBeta scintillation counter.
# [1] = biological target: T2, rat histamine H3 receptor (Rattus norvegicus, UniProt Q9QYN8); experiment: Rat H3 radioligand binding ([3H]-N-alpha-methylhistamine, SPA)
# T2 construct: encoding the entire 445-amino-acid rat histamine H3 receptor; expressed in transfected cells
# From the text: The rat H3 receptor cDNA was PCR amplified from reverse-transcribed RNA pooled from rat thalamus, hypothalamus, striatum and prefrontal cortex with a sequence corresponding to by #338-1672 of Genbank file #NM_053506, encoding the entire 445-amino-acid rat histamine H3 receptor. This was engineered into the pIRES-neo3 mammalian expression vector, which was stably transfected into the CHO-A3 cell line (Euroscreen, Belgium), followed by clonal selection by limiting dilution. Cells were harvested and cell pellets were frozen (−80° C.). Cell pellets were resuspended in 5 mM Tris-HCl, pH 7.5 with 5 nM EDTA and a cocktail of protease inhibitors (Complete Protease Inhibitor Tablets, Roche Diagnostics). Cells were disrupted using a polytron cell homogenizer and the suspension was centrifuged at 1000×g for 10 minutes at 4° C. The pellet was discarded and the supernatant centrifuged at 40,000×g for 30 min at 4° C. […]
# Membranes were resuspended in 50 mM Tris HCl (pH 7.4), 5 mM MgCl2, 0.1% BSA. […] Non-specific binding was determined in the presence of 10 μM clobenpropit. Radioligand bound to receptor, and therefore in proximity to the scintillation beads, was measured using a MicroBeta scintillation counter.
smiles,measurement,setting,value
C[C@@H]1CCCN1CCCOc1ccc(C(=O)[C@H]2CCCN2C(=O)C(F)(F)F)cc1 [Example 87],Ki,human H3 receptor,0.1 to 100 nM
same,Ki,[1],101 to 500 nM
